Experimental data: PubChem BioAssay AID1259327 (Drosophila RNAi Screening Center, 2017)

Test: 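Baseline ATP after transmembrane-protein gene knock-down with water vehicle only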
System: Drosophila S2R+ cells
Reagents: long dsRNA against Drosophila genes
Duration: 5 days (water added on day 4, read one day later)
Conditions: water added as vehicle, no metal, one day before read-out
Measured: 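Total ATP measured by luciferase light, scaled to plate mean, duplicates averaged, then z-scored across plates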
Scale: ATP z-score: higher = more total ATP than typical wells; ATP luminescence: higher = more total ATP
Rule for the call: 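Called active when the ATP z-score exceeds 1.5 or falls below -1.5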
Calls: active = hit: ATP up or down; inactive = no clear ATP change
In all, the deposit lists about 3,100 reagents; below is a part drawn at random. In the full data, 378 (12%) are marked active. 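Hits include both directions; z-score sign shows ATP rise or fall; raw luminescence values are not plate-normalised.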 A number with no mark means an inactive call. A plus sign joins genes that one reagent is predicted to hit. Reagent sequences are not shown. Not given: the amount of reagent.

ppk22 (pickpocket 22) [DRSC22093]: ATP z-score, duplicate mean = -1.13; ATP luminescence, replicate 1 (RLU) = 5.34e5; ATP luminescence, replicate 2 (RLU) = 4.33e5
CG7084 [DRSC16194]: ATP z-score, duplicate mean = 0.601; ATP luminescence, replicate 1 (RLU) = 8.15e5; ATP luminescence, replicate 2 (RLU) = 7.22e5
CG7084 [DRSC39839]: ATP z-score, duplicate mean = 0.0498; ATP luminescence, replicate 1 (RLU) = 4.99e5; ATP luminescence, replicate 2 (RLU) = 4.64e5
alien + CG17906 [DRSC02641]: ATP z-score, duplicate mean = -1.03; ATP luminescence, replicate 1 (RLU) = 6.57e5; ATP luminescence, replicate 2 (RLU) = 5.77e5
alien + CG17906 [DRSC24008]: ATP z-score, duplicate mean = 0.519; ATP luminescence, replicate 1 (RLU) = 9.46e5; ATP luminescence, replicate 2 (RLU) = 8.30e5
TrissinR (Trissin receptor) [DRSC25084]: ATP z-score, duplicate mean = -0.35; ATP luminescence, replicate 1 (RLU) = 9.41e5; ATP luminescence, replicate 2 (RLU) = 6.35e5
TrissinR (Trissin receptor) [DRSC26283]: ATP z-score, duplicate mean = -0.225; ATP luminescence, replicate 1 (RLU) = 8.92e5; ATP luminescence, replicate 2 (RLU) = 7.52e5
CG8850 [DRSC07287]: ATP z-score, duplicate mean = -1.49; ATP luminescence, replicate 1 (RLU) = 5.07e5; ATP luminescence, replicate 2 (RLU) = 4.63e5
CG8850 [DRSC25965]: ATP z-score, duplicate mean = 1.15; ATP luminescence, replicate 1 (RLU) = 1.08e6; ATP luminescence, replicate 2 (RLU) = 9.09e5
NijC (Ninjurin C) [DRSC14851]: ATP z-score, duplicate mean = 0.682; ATP luminescence, replicate 1 (RLU) = 3.56e5; ATP luminescence, replicate 2 (RLU) = 7.69e5
NijC (Ninjurin C) [DRSC29054]: ATP z-score, duplicate mean = 0.789; ATP luminescence, replicate 1 (RLU) = 1.05e6; ATP luminescence, replicate 2 (RLU) = 8.01e5
CG4101 [DRSC10400]: ATP z-score, duplicate mean = -0.741; ATP luminescence, replicate 1 (RLU) = 7.80e5; ATP luminescence, replicate 2 (RLU) = 8.17e5
Or88a (Odorant receptor 88a) [DRSC16770]: ATP z-score, duplicate mean = 0.0851; ATP luminescence, replicate 1 (RLU) = 2.98e5; ATP luminescence, replicate 2 (RLU) = 7.83e5
Or88a (Odorant receptor 88a) [DRSC39423]: ATP z-score, duplicate mean = 1.45; ATP luminescence, replicate 1 (RLU) = 5.58e5; ATP luminescence, replicate 2 (RLU) = 5.41e5
rho-7 + CG34231 [DRSC39477]: ATP z-score, duplicate mean = -0.551; ATP luminescence, replicate 1 (RLU) = 4.45e5; ATP luminescence, replicate 2 (RLU) = 3.89e5

No new results follow: 3 of the entries above.
Or88a (Odorant receptor 88a) [DRSC16770]: ATP z-score, duplicate mean = 0.0851; ATP luminescence, replicate 1 (RLU) = 2.98e5; ATP luminescence, replicate 2 (RLU) = 7.83e5
Or88a (Odorant receptor 88a) [DRSC39423]: ATP z-score, duplicate mean = 1.45; ATP luminescence, replicate 1 (RLU) = 5.58e5; ATP luminescence, replicate 2 (RLU) = 5.41e5
rho-7 + CG34231 [DRSC39477]: ATP z-score, duplicate mean = -0.551; ATP luminescence, replicate 1 (RLU) = 4.45e5; ATP luminescence, replicate 2 (RLU) = 3.89e5

The list goes on.
CG7627 [DRSC03065]: ATP z-score, duplicate mean = 1.82 (active); ATP luminescence, replicate 1 (RLU) = 5.28e5; ATP luminescence, replicate 2 (RLU) = 6.90e5
Flo1 (Flotillin 1) [DRSC07427]: ATP z-score, duplicate mean = 0.177; ATP luminescence, replicate 1 (RLU) = 7.49e5; ATP luminescence, replicate 2 (RLU) = 7.51e5
Flo1 (Flotillin 1) [DRSC28122]: ATP z-score, duplicate mean = -1.14; ATP luminescence, replicate 1 (RLU) = 1.06e6; ATP luminescence, replicate 2 (RLU) = 1.05e6
Ten-m (Tenascin major) [DRSC11664]: ATP z-score, duplicate mean = -0.512; ATP luminescence, replicate 1 (RLU) = 6.87e5; ATP luminescence, replicate 2 (RLU) = 6.87e5
Ten-m (Tenascin major) [DRSC11882]: ATP z-score, duplicate mean = -0.413; ATP luminescence, replicate 1 (RLU) = 8.62e5; ATP luminescence, replicate 2 (RLU) = 8.22e5
Tsp42Ef (Tetraspanin 42Ef) [DRSC06191]: ATP z-score, duplicate mean = 0.711; ATP luminescence, replicate 1 (RLU) = 6.99e5; ATP luminescence, replicate 2 (RLU) = 6.69e5
plh (pasang lhamu) [DRSC12294]: ATP z-score, duplicate mean = -1.11; ATP luminescence, replicate 1 (RLU) = 7.74e5; ATP luminescence, replicate 2 (RLU) = 7.29e5
Mct1 (Monocarboxylate transporter 1) [DRSC18681]: ATP z-score, duplicate mean = -0.291; ATP luminescence, replicate 1 (RLU) = 5.42e5; ATP luminescence, replicate 2 (RLU) = 7.68e5
Mct1 (Monocarboxylate transporter 1) [DRSC29006]: ATP z-score, duplicate mean = -0.592; ATP luminescence, replicate 1 (RLU) = 8.42e5; ATP luminescence, replicate 2 (RLU) = 6.69e5
